{"sequences": {"note": "The chains behind the UniProt entries cited, without tags or fusion partners. Where a name states a change or a piece, a line headed by the entry shows the natural chain unless it says otherwise.", "UniProt Q13936, whole entry, looked up": "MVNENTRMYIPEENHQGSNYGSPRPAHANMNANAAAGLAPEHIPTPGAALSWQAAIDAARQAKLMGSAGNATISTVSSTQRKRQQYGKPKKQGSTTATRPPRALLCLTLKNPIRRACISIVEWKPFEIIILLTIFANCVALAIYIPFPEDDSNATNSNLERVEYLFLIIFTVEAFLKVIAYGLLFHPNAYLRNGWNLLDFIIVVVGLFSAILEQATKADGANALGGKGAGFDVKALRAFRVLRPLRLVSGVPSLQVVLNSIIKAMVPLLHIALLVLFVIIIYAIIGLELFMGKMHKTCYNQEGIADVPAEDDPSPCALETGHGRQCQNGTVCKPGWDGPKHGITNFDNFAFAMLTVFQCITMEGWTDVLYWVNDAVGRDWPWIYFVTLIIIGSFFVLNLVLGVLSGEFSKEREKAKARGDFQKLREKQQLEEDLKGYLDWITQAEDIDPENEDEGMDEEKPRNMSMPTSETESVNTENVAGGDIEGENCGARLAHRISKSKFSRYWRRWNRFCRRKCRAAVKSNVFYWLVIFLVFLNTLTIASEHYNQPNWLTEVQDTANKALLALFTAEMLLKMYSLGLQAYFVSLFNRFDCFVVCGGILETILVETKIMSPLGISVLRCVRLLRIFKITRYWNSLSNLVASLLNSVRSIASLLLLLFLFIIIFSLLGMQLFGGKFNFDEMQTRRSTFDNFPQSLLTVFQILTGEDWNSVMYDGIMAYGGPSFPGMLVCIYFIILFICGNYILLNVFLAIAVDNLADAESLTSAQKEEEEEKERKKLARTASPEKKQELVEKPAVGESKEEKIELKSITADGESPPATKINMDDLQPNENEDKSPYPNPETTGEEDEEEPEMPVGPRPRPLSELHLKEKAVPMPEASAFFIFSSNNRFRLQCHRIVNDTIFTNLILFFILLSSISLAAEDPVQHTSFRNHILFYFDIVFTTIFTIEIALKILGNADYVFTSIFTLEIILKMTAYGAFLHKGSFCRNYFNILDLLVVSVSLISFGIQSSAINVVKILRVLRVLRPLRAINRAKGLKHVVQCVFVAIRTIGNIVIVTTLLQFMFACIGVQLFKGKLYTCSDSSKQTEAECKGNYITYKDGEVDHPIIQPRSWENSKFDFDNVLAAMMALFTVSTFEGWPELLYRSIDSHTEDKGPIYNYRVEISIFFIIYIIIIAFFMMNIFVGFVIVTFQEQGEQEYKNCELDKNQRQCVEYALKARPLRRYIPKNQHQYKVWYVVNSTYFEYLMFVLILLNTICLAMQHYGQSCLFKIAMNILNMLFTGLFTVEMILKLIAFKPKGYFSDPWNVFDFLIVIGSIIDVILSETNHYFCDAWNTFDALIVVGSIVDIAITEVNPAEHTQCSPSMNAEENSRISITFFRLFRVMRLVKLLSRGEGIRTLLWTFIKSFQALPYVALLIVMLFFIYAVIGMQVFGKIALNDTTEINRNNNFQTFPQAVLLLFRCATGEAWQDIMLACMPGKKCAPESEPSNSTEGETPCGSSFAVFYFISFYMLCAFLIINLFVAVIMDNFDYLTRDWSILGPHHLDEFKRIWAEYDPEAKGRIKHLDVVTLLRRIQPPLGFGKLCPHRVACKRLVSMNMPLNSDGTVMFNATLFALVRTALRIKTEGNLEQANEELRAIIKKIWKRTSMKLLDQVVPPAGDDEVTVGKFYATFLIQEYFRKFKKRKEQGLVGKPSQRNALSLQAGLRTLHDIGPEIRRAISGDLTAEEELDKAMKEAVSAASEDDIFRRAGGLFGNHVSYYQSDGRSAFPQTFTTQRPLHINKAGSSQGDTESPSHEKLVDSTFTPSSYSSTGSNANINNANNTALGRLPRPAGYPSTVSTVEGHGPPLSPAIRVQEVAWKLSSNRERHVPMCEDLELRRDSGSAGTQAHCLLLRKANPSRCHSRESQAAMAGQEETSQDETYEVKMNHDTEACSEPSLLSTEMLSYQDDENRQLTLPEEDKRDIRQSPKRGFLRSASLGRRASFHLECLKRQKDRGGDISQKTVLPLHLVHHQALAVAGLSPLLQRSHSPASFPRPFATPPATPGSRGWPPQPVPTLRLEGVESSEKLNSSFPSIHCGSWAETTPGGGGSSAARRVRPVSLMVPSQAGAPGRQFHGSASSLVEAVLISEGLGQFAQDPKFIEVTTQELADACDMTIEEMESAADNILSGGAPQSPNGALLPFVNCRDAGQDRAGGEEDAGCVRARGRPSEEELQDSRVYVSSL", "UniProt Q9NS00": "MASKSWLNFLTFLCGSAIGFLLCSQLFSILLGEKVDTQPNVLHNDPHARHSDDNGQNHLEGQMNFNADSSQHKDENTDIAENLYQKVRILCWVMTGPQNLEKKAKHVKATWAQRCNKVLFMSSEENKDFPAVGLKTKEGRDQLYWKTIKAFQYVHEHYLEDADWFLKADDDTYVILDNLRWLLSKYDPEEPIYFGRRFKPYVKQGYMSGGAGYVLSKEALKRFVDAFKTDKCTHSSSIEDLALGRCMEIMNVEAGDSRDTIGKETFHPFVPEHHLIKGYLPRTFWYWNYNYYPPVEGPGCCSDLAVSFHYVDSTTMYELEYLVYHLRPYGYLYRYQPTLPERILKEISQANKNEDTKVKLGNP", "UniProt Q6PH81": "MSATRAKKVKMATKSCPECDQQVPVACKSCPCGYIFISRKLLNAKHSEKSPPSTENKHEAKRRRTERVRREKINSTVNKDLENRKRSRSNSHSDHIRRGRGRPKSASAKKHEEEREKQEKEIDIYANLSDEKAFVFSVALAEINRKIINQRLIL", "UniProt P00736": "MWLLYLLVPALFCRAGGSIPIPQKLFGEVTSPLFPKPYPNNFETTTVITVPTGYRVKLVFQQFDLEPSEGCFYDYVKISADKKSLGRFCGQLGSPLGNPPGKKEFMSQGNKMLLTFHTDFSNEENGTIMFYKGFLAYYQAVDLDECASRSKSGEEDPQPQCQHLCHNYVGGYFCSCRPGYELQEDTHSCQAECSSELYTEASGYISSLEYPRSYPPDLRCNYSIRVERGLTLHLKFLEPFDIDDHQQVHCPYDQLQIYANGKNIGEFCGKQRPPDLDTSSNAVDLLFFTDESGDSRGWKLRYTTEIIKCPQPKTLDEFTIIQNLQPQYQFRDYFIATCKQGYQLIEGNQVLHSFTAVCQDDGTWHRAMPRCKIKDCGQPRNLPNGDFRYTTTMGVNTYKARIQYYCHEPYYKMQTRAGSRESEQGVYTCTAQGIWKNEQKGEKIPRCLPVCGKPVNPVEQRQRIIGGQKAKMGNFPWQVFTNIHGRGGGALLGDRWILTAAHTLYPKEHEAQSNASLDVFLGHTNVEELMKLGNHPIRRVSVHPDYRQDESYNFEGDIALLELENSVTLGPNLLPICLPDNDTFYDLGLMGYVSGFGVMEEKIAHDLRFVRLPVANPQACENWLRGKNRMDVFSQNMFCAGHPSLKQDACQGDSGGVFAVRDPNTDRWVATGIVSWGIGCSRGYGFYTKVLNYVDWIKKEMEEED", "UniProt Q8IYL3": "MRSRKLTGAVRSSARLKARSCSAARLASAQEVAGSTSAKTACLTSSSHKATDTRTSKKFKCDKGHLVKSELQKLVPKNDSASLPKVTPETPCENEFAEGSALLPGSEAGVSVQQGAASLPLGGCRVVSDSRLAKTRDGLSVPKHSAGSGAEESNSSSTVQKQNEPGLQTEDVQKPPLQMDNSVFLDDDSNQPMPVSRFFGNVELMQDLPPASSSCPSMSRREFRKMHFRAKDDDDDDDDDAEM", "UniProt Q7Z4R8": "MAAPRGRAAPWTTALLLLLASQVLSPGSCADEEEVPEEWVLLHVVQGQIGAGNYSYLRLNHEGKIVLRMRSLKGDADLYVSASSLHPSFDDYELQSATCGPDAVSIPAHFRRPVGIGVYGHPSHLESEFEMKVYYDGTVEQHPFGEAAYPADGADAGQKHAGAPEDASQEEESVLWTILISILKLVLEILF", "UniProt Q9BSJ5": "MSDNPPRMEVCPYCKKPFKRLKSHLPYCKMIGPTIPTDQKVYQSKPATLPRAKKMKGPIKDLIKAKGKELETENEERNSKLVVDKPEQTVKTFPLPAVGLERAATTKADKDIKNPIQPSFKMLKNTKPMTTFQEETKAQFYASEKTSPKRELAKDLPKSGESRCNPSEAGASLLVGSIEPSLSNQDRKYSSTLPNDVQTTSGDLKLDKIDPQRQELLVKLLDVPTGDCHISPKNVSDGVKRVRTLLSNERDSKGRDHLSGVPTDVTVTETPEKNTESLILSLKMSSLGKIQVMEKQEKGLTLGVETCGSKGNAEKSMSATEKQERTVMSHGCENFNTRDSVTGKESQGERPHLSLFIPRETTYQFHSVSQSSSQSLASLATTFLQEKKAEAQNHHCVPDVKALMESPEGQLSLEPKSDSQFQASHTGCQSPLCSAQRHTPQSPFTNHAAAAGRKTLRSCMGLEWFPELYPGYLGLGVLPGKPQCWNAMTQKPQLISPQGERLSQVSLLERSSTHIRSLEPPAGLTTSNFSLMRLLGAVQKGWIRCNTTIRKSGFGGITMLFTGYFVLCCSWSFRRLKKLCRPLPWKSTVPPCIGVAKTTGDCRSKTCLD", "UniProt Q9BTV7": "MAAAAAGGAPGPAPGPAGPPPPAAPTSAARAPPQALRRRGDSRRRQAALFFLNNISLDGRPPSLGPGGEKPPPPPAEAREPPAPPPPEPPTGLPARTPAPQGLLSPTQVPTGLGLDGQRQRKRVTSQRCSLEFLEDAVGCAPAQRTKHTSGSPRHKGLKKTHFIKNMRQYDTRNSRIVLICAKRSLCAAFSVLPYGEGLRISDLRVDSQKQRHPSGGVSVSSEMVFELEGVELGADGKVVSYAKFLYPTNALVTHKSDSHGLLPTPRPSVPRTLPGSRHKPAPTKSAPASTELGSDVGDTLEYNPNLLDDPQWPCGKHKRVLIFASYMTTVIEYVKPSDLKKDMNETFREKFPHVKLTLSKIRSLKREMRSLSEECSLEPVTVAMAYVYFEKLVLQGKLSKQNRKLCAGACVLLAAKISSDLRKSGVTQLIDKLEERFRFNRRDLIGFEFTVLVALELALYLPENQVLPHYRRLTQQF", "UniProt Q01518, whole entry, looked up": "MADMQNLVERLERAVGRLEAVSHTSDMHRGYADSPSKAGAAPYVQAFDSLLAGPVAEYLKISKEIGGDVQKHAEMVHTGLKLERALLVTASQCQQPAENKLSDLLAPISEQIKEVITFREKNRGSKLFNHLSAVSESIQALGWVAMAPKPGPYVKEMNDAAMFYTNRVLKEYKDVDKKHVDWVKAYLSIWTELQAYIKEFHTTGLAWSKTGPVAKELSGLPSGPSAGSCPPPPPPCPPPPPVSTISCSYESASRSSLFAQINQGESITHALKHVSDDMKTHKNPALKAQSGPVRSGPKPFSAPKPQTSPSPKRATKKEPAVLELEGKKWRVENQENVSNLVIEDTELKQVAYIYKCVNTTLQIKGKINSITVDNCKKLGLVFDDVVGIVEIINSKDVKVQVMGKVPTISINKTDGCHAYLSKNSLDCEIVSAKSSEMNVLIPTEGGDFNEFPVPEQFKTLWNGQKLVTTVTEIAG", "UniProt P23280": "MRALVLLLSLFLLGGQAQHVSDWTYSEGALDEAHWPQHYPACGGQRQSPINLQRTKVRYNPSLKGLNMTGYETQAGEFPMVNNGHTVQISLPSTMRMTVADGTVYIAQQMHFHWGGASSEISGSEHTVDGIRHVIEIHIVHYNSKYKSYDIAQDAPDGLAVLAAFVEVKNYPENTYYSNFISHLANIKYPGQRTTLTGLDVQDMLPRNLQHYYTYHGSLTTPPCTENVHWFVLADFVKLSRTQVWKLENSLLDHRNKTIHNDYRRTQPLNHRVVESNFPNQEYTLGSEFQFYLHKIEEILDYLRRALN", "UniProt Q96MH7": "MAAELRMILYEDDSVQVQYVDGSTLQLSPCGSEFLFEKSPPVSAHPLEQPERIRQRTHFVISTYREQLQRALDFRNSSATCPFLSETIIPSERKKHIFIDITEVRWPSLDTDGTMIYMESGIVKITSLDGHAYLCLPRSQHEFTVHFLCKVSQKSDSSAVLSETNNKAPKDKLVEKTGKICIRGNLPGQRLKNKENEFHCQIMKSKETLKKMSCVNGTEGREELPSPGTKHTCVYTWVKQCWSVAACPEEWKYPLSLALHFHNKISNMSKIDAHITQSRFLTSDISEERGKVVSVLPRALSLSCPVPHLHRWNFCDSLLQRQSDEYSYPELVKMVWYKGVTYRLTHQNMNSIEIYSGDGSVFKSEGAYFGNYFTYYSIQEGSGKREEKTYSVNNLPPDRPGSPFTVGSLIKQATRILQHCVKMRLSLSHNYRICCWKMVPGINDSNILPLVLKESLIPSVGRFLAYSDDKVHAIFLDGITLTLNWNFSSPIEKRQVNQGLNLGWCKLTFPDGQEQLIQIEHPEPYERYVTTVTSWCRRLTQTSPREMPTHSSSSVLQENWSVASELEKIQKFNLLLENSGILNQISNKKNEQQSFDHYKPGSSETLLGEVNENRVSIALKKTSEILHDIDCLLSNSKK", "UniProt Q504U0": "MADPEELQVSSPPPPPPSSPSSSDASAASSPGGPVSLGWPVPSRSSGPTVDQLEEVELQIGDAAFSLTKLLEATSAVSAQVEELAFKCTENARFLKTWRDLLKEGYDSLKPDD", "UniProt Q9BUW7": "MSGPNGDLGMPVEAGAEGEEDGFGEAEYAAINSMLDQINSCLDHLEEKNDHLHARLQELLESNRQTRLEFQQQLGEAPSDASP"}, "source": "the supplement of paper PMC10849652", "note": "The other results are listed elsewhere or left out."}
{"compound": "NC(=O)c1cnc(N[C@@H]2CCCC[C@@H]2N)nc1Nc1cccc(-n2nccn2)c1", "test": "log2 fold change, soluble protein after heating vs DMSO (PISA); higher = thermal stabilisation; K562 lysate, 10 uM; active = over 0.2 and 3.5 SD of the protein, either way, in both replicates (recomputed)", "method_in_brief": "(§1)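 Values give the log-two fold change in thermal stability against solvent controls, from duplicates. Crude K562 extract at 1 mg/mL protein, made by dounce homogenisation in PBS pH 7.4 with 1 mM MgCl2, was treated with 10 μM compound for 30 min. After 3 min heating across 48°C-58°C, aliquots were pooled, adjusted to 0.5% NP-40 at 4°C and centrifuged at 21,000xg for 90 min. The supernatant was measured by TMTpro 16plex LC-MS/MS with channel sums equalised.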"}
{"target": "CAPNS1 (UniProt K7ES78)", "log2 fold change": "inactive: 0.053"}
{"target": "CACUL1 (UniProt Q86Y37)", "log2 fold change": "inactive: -0.1"}
{"target": "CACNA1C isoform 2 (UniProt Q13936)", "log2 fold change": "inactive: -0.049"}
{"target": "C4A (UniProt P0C0L4)", "log2 fold change": "inactive: -0.133"}
{"target": "C7orf25 isoform 2 (UniProt Q9BPX7)", "log2 fold change": "inactive: -0.01"}
{"target": "C12orf4 (UniProt Q9NQ89)", "log2 fold change": "inactive: -0.007"}
{"target": "C16orf70 (UniProt Q9BSU1)", "log2 fold change": "inactive: -0.001"}
{"target": "C1GALT1 (UniProt Q9NS00)", "log2 fold change": "inactive: 0.062"}
{"target": "C16orf87 (UniProt Q6PH81)", "log2 fold change": "inactive: -0.099"}
{"target": "CAP1 (UniProt Q5T0R8)", "log2 fold change": "inactive: 0.052"}
{"target": "C1R (UniProt P00736)", "log2 fold change": "inactive: 0.076"}
{"target": "C8orf37 (UniProt Q96NL8)", "log2 fold change": "inactive: 0.298"}
{"target": "C1orf174 (UniProt Q8IYL3)", "log2 fold change": "inactive: -0.143"}
{"target": "C6orf120 (UniProt Q7Z4R8)", "log2 fold change": "inactive: 0.017"}
{"target": "C1orf226 isoform 2 (UniProt A1L170)", "log2 fold change": "inactive: -0.121"}
{"target": "C17orf80 (UniProt Q9BSJ5)", "log2 fold change": "inactive: 0.018"}
{"target": "CABLES2 (UniProt Q9BTV7)", "log2 fold change": "inactive: 0.04"}
{"target": "C6orf136 isoform 4 (UniProt Q5SQH8)", "log2 fold change": "inactive: -0.019"}
{"compound": "NC1(c2ccc(-c3nc4ccn5c(=O)[nH]nc5c4cc3-c3ccccc3)cc2)CCC1", "test": "log2 fold change, soluble protein after heating vs DMSO (PISA); higher = thermal stabilisation; K562 lysate, 10 uM; active = over 0.2 and 3.5 SD of the protein, either way, in both replicates (recomputed)", "method_in_brief": "as §1"}
{"target": "CAPNS1 (UniProt K7ES78)", "log2 fold change": "inactive: -0.099"}
{"target": "CACUL1 (UniProt Q86Y37)", "log2 fold change": "inactive: -0.028"}
{"target": "CACNA1C isoform 2 (UniProt Q13936)", "log2 fold change": "inactive: -0.048"}
{"target": "C4A (UniProt P0C0L4)", "log2 fold change": "inactive: -0.044"}
{"target": "C7orf25 isoform 2 (UniProt Q9BPX7)", "log2 fold change": "inactive: -0.12"}
{"target": "C8orf88 (UniProt P0DMB2)", "log2 fold change": "inactive: 0.084"}
{"target": "C12orf4 (UniProt Q9NQ89)", "log2 fold change": "inactive: -0.322"}
{"target": "C16orf70 (UniProt Q9BSU1)", "log2 fold change": "inactive: 0.009"}
{"target": "C1GALT1 (UniProt Q9NS00)", "log2 fold change": "inactive: -0.068"}
{"target": "CAP1 isoform 2 (UniProt Q01518)", "log2 fold change": "inactive: -0.002"}
{"target": "C17orf53 (UniProt Q8N3J3)", "log2 fold change": "inactive: 0.068"}
{"target": "CAP1 (UniProt Q5T0R8)", "log2 fold change": "inactive: -0.007"}
{"target": "CA6 (UniProt P23280)", "log2 fold change": "inactive: 2.17"}
{"target": "C5orf34 (UniProt Q96MH7)", "log2 fold change": "inactive: 0.13"}
{"target": "CAD (UniProt H7BZB3)", "log2 fold change": "active: 0.551"}
{"target": "C2CD2 (UniProt Q9Y426)", "log2 fold change": "inactive: 0.039"}
{"target": "C4orf46 (UniProt Q504U0)", "log2 fold change": "inactive: 0.042"}
{"target": "C8orf37 (UniProt Q96NL8)", "log2 fold change": "inactive: 0.029"}
{"target": "C6orf120 (UniProt Q7Z4R8)", "log2 fold change": "inactive: 0.041"}
{"target": "C17orf80 (UniProt Q9BSJ5)", "log2 fold change": "inactive: -0.013"}
{"target": "C6orf136 isoform 4 (UniProt Q5SQH8)", "log2 fold change": "inactive: -0.157"}
{"target": "C9orf16 (UniProt Q9BUW7)", "log2 fold change": "inactive: 0.114"}
{"target": "C11orf74 (UniProt Q86VG3)", "log2 fold change": "inactive: 0.119"}
